By UniProt entry, the sequences of proteins in these tests, tags left out. Where a name states a change or a piece, a line headed by the entry shows the natural chain unless it says otherwise.
UniProt Q9LXD7: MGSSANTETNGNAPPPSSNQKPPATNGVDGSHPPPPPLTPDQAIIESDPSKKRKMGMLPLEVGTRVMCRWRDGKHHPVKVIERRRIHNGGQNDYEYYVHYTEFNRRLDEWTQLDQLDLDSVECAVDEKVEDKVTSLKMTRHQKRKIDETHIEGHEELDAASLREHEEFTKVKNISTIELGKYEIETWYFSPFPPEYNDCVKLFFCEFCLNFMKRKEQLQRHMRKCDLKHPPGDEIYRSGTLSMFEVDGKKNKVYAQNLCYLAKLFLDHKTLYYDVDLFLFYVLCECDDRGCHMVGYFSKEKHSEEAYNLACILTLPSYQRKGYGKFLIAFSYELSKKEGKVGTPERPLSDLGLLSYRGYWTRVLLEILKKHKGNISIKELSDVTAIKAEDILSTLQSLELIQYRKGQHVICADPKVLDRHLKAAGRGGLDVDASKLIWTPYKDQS
UniProt Q9FX82: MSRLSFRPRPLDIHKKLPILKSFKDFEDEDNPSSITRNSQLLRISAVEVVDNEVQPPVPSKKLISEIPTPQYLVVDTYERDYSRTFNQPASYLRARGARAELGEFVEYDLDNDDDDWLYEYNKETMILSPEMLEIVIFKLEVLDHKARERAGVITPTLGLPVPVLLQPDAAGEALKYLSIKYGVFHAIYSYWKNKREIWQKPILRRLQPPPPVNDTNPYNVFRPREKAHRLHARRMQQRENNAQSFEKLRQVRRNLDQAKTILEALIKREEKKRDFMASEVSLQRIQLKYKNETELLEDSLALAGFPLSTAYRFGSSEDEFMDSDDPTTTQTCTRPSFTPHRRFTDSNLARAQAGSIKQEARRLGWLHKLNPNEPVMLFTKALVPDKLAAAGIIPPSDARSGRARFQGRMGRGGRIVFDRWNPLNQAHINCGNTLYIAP
UniProt F4IDH5: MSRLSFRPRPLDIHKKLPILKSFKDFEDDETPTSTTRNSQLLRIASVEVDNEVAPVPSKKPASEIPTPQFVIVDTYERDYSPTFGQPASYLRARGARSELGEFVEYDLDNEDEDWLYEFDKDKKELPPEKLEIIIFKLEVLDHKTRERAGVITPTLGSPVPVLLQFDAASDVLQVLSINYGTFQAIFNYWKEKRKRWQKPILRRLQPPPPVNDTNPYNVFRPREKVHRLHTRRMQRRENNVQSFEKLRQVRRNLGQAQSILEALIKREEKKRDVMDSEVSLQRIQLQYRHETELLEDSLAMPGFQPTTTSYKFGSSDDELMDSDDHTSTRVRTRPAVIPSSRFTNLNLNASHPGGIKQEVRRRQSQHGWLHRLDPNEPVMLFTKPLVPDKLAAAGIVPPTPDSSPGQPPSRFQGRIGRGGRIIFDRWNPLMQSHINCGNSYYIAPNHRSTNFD

In doi:10.1101/846592:

T1: HAM1-6xHis (A. thaliana) (UniProt Q9FLF7)
T1 sequence: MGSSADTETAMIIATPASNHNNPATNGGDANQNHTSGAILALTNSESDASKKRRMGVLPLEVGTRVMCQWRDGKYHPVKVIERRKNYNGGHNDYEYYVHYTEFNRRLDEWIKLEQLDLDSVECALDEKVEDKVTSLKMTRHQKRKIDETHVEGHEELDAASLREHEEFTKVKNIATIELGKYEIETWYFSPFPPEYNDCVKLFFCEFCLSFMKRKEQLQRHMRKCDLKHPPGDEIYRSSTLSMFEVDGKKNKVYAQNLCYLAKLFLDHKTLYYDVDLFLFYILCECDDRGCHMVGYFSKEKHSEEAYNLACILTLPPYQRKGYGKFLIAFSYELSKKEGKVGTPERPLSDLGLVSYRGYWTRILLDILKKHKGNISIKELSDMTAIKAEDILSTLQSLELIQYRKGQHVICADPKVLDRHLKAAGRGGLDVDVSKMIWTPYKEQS

T2: HAM1 fused with His-tag (A. thaliana) (UniProt Q9FLF7)
T2 sequence: T1 sequence

B1: HAM1 fused with His-tag (enzyme, UniProt Q9FLF7 1-445)
chain: T1 sequence

Key:
HAM1-6xHis (A. thaliana) = target: T1, HAM1-6xHis (A. thaliana); experiment: pull-down
[1] = target: HAM2 fused with His-tag (A. thaliana) (UniProt Q9LXD7); experiment: pull-down
[2] = target: T2, HAM1 fused with His-tag (A. thaliana); experiment: pull-down
[3] = target: AtEPL1A fused with GST-tag (A. thaliana) (UniProt Q9FX82); experiment: far-Western, overlay or dot blot
[4] = target: AtEPL1B fused with GST-tag (A. thaliana) (UniProt F4IDH5); experiment: far-Western, overlay or dot blot

Row | Molecule | binding (HAM1-6xHis (A. thaliana)) | binding [1] | binding [2] | binding [3] | binding [4]
1 | AtEAF6 (A. thaliana) | binds |  |  |  | 
2 | AtEPL1A fused with GST-tag (from UniProt Q9FX82) |  | binds | binds |  | 
3 | AtEPL1B fused with GST-tag (from UniProt F4IDH5) |  | binds | binds |  | 
4 | FLAG-AtEPL1A (A. thaliana) | binds |  |  |  | 
5 | HAM2 fused with His-tag (from UniProt Q9LXD7 1-445) (enzyme) |  |  |  | binds | binds
6 | B1 |  |  |  | binds | binds

No constants are given. Whether binding was seen depends on the method and setting. A result given as binding can be weak or reduced; the word gives no strength. For some of these results: Tags and fused reporters may be left off the sequences shown. For some of these results: Binding seen in cells or lysates may run through a third protein.
